Source: ChEMBL document CHEMBL3217667, “Extended side chain analogues of 8-aminoquinolines: Synthesis and evaluation of antiprotozoal, antimicrobial, -hematin inhibition, and cytotoxic activities” (Medchemcomm, 2011)
Values after ≈ are worked out from the molar mass of the structure shown.

System: Candida albicans
Assay: Antifungal activity against Candida albicans by broth microdilution assay
Format: functional, organism-based

Q: With `C[C@@H]1[C@H](O)[C@@H](C)/C=C/C=C/C=C/C=C/C=C/C=C/C=C/[C@H](O[C@@H]2O[C@H](C)[C@@H](O)[C@H](N)[C@@H]2O)C[C@@H]2O[C@](O)(C[C@@H](O)C[C@@H](O)[C@H](O)CC[C@@H](O)C[C@@H](O)CC(=O)O[C@H]1C)C[C@H](O)[C@H]2C(=O)O` [AMPHOTERICIN B] as the molecule, how does the MIC read?
A: 0.63 µg/mL (≈ 0.682 µM)
